Experimental data: PMC9569985
These are yes or no findings as the source states them, for the method shown. In cells and extracts the contact can be indirect. Some results given as binding are weak or reduced against the parent protein; the word gives no strength. Tags and fused reporters may be left off the sequences shown.

The chains behind the UniProt entries cited, without tags or fusion partners.
UniProt Q9R012: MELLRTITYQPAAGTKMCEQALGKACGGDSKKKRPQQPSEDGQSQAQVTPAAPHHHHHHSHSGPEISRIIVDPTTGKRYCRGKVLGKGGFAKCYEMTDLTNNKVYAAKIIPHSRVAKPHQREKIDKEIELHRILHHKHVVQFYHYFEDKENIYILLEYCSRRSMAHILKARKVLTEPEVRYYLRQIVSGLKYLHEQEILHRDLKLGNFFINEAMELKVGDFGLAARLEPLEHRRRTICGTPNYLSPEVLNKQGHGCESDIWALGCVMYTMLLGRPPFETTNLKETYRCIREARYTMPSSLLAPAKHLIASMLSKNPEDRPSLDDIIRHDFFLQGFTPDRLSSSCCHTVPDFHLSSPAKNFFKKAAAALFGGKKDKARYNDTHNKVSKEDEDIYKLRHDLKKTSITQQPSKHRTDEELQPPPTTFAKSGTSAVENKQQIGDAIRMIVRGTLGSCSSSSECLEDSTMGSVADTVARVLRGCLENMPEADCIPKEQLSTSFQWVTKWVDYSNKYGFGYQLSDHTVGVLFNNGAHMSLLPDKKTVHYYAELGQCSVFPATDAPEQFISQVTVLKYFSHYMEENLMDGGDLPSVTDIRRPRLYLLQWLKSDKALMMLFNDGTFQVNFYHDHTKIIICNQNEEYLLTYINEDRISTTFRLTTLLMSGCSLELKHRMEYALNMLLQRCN

Biological target: T1, FLAG-HSPB5 (UniProt P23927)
T1 sequence: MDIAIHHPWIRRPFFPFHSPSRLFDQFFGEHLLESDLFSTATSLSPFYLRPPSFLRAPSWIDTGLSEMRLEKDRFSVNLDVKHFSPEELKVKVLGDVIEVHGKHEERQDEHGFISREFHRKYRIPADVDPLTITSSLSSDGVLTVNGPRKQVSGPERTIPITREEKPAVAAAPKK
Assay: co-IP; FLAG-HSPB5 overexpressed in L6 cells, 5 µM MG132 for 24 h; lysate (50 mM Tris-HCl pH 7.5, 150 mM NaCl, 0.5% Nonidet-P40) immunoprecipitated with anti-tag antibody-conjugated beads, Western blot for endogenous PLK2; the paper calls it a pull-down assay

Endogenous PLK2 of L6 cells (from UniProt Q9R012 1-682) (enzyme)
binding: binds
